“And” between values parts separate entries of the source, which are not always exact repeats. Identical values can stand only once. For some assays here: HELM strings list residues between dots; [ac] is acetyl, [am] amide, other brackets name non-standard units. Square brackets hold non-standard residues; d marks the D form. * marks the point of attachment. Arg(NO2) = N=C(NCCC[C@H](N)C(=O)O)N[N+](=O)[O-]; Boc = CC(C)(C)OC(=O)*; OBn = c1ccc(CO*)cc1; Bn = c1ccc(C*)cc1; NHNH2 = NN*
What was measured:
[1] = general procedure: hybrid (solid and solution phase) peptide synthesis; Boc-amino acid on 2% crosslinked Merrifield resin; 1% crosslinked p-methyl benzhydrylamine (MBHA) resin for octapeptide; DCCI; DCCI/HOBt for repeat couplings; azide method for fragment couplings; details: acetate (HOAc) salt
[2] = general procedure: hybrid (solid and solution phase) peptide synthesis; MBHA resin; DCCI; DCCI/HOBt for repeat couplings; azide method for fragment couplings; details: whole synthesis, scale 2 mmoles, acetate (HOAc) salt
[3] = late stage modification step, HPLC

Substance: Boc-D(OBn)[Arg(NO2)]IG-OMe
- purity (crude or final not stated) ([1]; coupling step, HPLC): HPLC 94%
- step yield ([1]; coupling step): 89%

Substance: Boc-AQSG-OMe
- purity (crude or final not stated) [1, 3]: 94.5%
- step yield ([1]; late stage modification step): 100%

Substance: Boc-Arg-Arg-Ser-Ser-Cys(Acm)-Phe-Gly-Gly-Arg-Ile-Asp-Arg-Ile-Gly-Ala-Gln-Ser-Gly-Leu-Gly-Cys(Acm)-Asn-Ser-Phe-Arg-Tyr-OH.6HOAc
- final HPLC purity ([1]; coupling step, HPLC): 92% pure

Substance: Boc-Ala-Gln-Ser-Gly-Leu-Gly-Cys(Acm)-Asn-Ser-Phe-Arg-Tyr-NH2.HOAc
- crude HPLC purity ([1]; coupling step, HPLC): 80.4%

Substance: H.Ala-Gln-Ser-Gly-Leu-Gly-Acm(Cys)-Asn-Ser-Phe-Arg-Tyr-NH2 2HOAc salt
- final HPLC purity [1, 3]: 96.7%
- step yield ([1]; late stage modification step): 58.0%

Substance: Boc-Ala-Gln-Ser-Gly-Leu-Gly-Cys(Acm)-Asn-Ser-Phe-Arg-Tyr-OH.HOAC
- final HPLC purity ([1]; coupling step, HPLC): 97.1%
- step yield ([1]; coupling step): 39%

Substance: H.Ala-Gln-Ser-Gly-Leu-Gly-Acm(Cys)-Asn-Ser-Phe-Arg-Tyr-OH 2HOAc salt
- final HPLC purity [1, 3]: 99.3%
- step yield ([1]; late stage modification step): 75.0%

Substance: PEPTIDE1{R.R.S.S.C.F.G.G.R.I.D.R.I.G.A.Q.S.G.L.G.C.N.S.F.R.Y.[am]}$PEPTIDE1,PEPTIDE1,5:R3-21:R3$$$V2.0
- final HPLC purity [1, 3]: 97%
- step yield ([1]; late stage modification step): 79.9%

Substance: Boc-AQS(Bn)G-OMe
- final HPLC purity ([1]; whole synthesis, HPLC): 94.6%
- isolated yield ([1]; whole synthesis): 41% yield

Substance: Boc-Arg-Ile-Asp-Arg-Ile-Gly-NHNH2.2HOAc
- step yield ([1]; late stage modification step): 100% yield

Substance: (TFA) H-Arg-Ile-Asp-Arg-Ile-Gly-Ala-Gln-Ser-Gly-Leu-Gly-Cys(Acm)-Asn-Ser-Phe-Arg-Tyr-OH
- crude HPLC purity [1, 3]: 90%
- step yield ([1]; late stage modification step): 88% yield

Substance: PEPTIDE1{R.R.S.S.C.F.G.G.R.I.D.R.I.G.A.Q.S.G.L.G.C.N.S.F.R.Y}$PEPTIDE1,PEPTIDE1,5:R3-21:R3$$$V2.0
- final HPLC purity ([1]; late stage modification step, HPLC, run 1): 100% (HPLC)

Substance: Boc-Arg-Ile-Asp-Arg-Ile-Gly-Ala-Gln-Ser-Gly-Leu-Gly-Cys(Acm)-Asn-Ser-Phe-Arg-Tyr-OH.3HOAc
- final HPLC purity ([1]; coupling step, HPLC): 94%
- step yield ([1]; coupling step): 71% yield

Substance: H.Leu-Gly-Cys(Acm)-Asn-Ser-Phe-Arg-Tyr-NH2.2HOAc
- isolated mass [2]: 396 mg
- isolated yield [2]: 14%
- final HPLC purity ([1]; whole synthesis, HPLC): 98.7%

Substance: Boc-ID(OBn)[Arg(NO2)]IG-OMe
- purity (crude or final not stated) ([1]; coupling step, HPLC): HPLC 95%
- step yield ([1]; coupling step): 94%

Substance: Boc-Arg-Ile-Asp-Arg-Ile-Gly-Ala-Gln-Ser-Gly-Leu-Gly-Cys(Acm)-Asn-Ser-Phe-Arg-Tyr-NH2.5HOAc
- final HPLC purity ([1]; coupling step, HPLC): 94%

Substance: Boc-[Arg(NO2)]ID(OBn)[Arg(NO2)]IG-OMe
- purity (crude or final not stated) ([1]; coupling step, HPLC): HPLC 96%
- step yield ([1]; coupling step): 91% yield

Substance: H.Leu-Gly-Cys(Acm)-Asn-Ser-Phe-Arg-Tyr-OH.HOAc
- final HPLC purity ([1]; whole synthesis, HPLC): 97.1%
- isolated yield ([1]; whole synthesis): (37%)

Substance: Boc-AQSG-NHNH2
- purity (crude or final not stated) [1, 3]: 94%

Substance: (HCl) H-Ile-Asp(Bzl)-Arg(NO2)-Ile-Gly-OCH3
- purity (crude or final not stated) [1, 3]: HPLC 97%
- step yield ([1]; late stage modification step): 100% yield

Substance: Boc-Arg-Arg-Ser-Ser-Cys(Acm)Phe-Gly-Gly-NHNH2.2HOAc
- final HPLC purity [1, 3]: 96%
- purity (crude or final not stated) [1, 3]: 96%

Substance: (HCl) H-Asp(Bzl)-Arg(NO2)-Ile-Gly-OCH3
- purity (crude or final not stated) [1, 3]: HPLC 96%
- step yield ([1]; late stage modification step): 94%

Substance: Boc-Arg-Ile-Asp-Arg-Ile-Gly-OCH3.2HOAc
- crude HPLC purity [1, 3]: HPLC 93%
- final HPLC purity [1, 3]: HPLC 97.5%
- step yield ([1]; late stage modification step, corr. for peptide content): 60% yield

Substance: Boc-Arg-Arg-Ser-Ser-Cys(Acm)-Phe-Gly-Gly-Ome.2HOAc
- final purity (method not given) ([1]; whole synthesis, HPLC): 89%
- final HPLC purity ([1]; whole synthesis, HPLC, run 1): 96% and 89%
- crude mass ([1]; whole synthesis, scale 6 mm): 5.45 g
- isolated mass ([1]; whole synthesis, scale 6 mm): 1.41 g
- isolated yield ([1]; whole synthesis, scale 6 mm): 23%

Source: patent publication US4607023 (dated 1986)
